Reference: publication PMC11589570, “Critical assessment of LC3/GABARAP ligands used for degrader development and ligandability of LC3/GABARAP binding pockets” (Nature Communications, 2024)
Several values for one entry are separate records, joined by “and”; a condition that tells them apart may be missing. Equal values may be shown once. Read-outs that look alike come from different tables or passages of the source. This continues a long series; more values of the same kind are listed elsewhere. Values belong to the compound of their own block, whether it stands above or below them.

By UniProt entry, the sequences of proteins in these tests, tags left out. Residues count along the entry.
UniProt O95166, 1-116: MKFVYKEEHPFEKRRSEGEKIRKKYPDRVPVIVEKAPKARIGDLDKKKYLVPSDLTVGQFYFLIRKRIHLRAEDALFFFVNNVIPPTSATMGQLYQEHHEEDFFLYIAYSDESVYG

Key:
RPE1 cells = assay: Cell growth assay (IncuCyte confluence over 72 h); type: cell-based
Method: (§1) Cell growth assay: Cell confluence (phase) from RPE1 (hTERT RPE-1, ATCC CLR_4000) or U2OS (ATCC, HTB-96) cell lines were monitored over time with the IncuCyte S3 (Sartiorius, Germany) in 384-well plates in 50 ul DMEM media, supplemented with 10% Fetal Bovine Serum (FBS) 1% penicillin/Streptomycin and incubated 24 h before treatment. Experiment was performed as described in Cano-Franco et al.. 50 μl of media containing either 2× final concentration of indicated compounds in or control compounds (final conc.: 0.1% DMSO, 250 nM Torin1, 200 ng/mL Bafilomycin) were added and images were taken every two hours over 72 h. Cell confluence is represented as % of area covered by cells. Each data point represents the average ratio or confluence obtained from three individual wells of the plate.

U2OS cells = assay: Cell growth assay (IncuCyte confluence over 72 h); type: cell-based; set-up: key: % of well area covered by cells (confluence)
Method: as §1, with “50 μl of media containing either 2× final concentration of indicated compounds in or control compounds (final conc.: 0.1% DMSO, 250 nM Torin1, 200 ng/mL Bafilomycin) were added and images were taken every two hours over 72 h.” left out

GABARAP = GABARAP (Homo sapiens, UniProt O95166); type: binding; details: GABARAP:TH152 molar ratio 1:2
LC3B = LC3B (Homo sapiens, UniProt Q9GZQ8); details: LC3B:TH152 1:2

SMILES: CO[C@@H]1[C@@H](OC(N)=O)[C@@H](O)[C@H](Oc2ccc3c(O)c(NC(=O)c4ccc(O)c(CC=C(C)C)c4)c(=O)oc3c2C)OC1(C)C [compound 12, Novobiocin]
RPE1 cell growth (RPE1 cells; 100 nM, 12 h): 38 and 20 and 23
RPE1 cell growth (RPE1 cells; 100 nM, 14 h): 41 and 22 and 25
RPE1 cell growth (RPE1 cells; 100 nM, 16 h): 43 and 25 and 26
RPE1 cell growth (RPE1 cells; 100 nM, 18 h): 48 and 25 and 28
RPE1 cell growth (RPE1 cells; 500 nM, 10 h): 25
RPE1 cell growth (RPE1 cells; 500 nM, 12 h): 44 and 23 and 27
RPE1 cell growth (RPE1 cells; 500 nM, 14 h): 45 and 24 and 29
RPE1 cell growth (RPE1 cells; 500 nM, 16 h): 47 and 26 and 30
RPE1 cell growth (RPE1 cells; 500 nM, 18 h): 51 and 27 and 32
RPE1 cell growth (RPE1 cells; 1 uM, 10 h): 35
RPE1 cell growth (RPE1 cells; 1 uM, 12 h): 29 and 38
RPE1 cell growth (RPE1 cells; 1 uM, 14 h): 31 and 40 and 29
RPE1 cell growth (RPE1 cells; 1 uM, 16 h): 32 and 42 and 33
RPE1 cell growth (RPE1 cells; 1 uM, 18 h): 32 and 46 and 33
RPE1 cell growth (RPE1 cells; 3 uM, 12 h): 41 and 28 and 35
RPE1 cell growth (RPE1 cells; 3 uM, 14 h): 44 and 26 and 37
RPE1 cell growth (RPE1 cells; 3 uM, 16 h): 46 and 30 and 39
RPE1 cell growth (RPE1 cells; 3 uM, 18 h): 49 and 30 and 41
RPE1 cell growth (RPE1 cells; 5 uM, 12 h): 41 and 28 and 33
RPE1 cell growth (RPE1 cells; 5 uM, 14 h): 43 and 28 and 36
RPE1 cell growth (RPE1 cells; 5 uM, 16 h): 43 and 31 and 38
RPE1 cell growth (RPE1 cells; 5 uM, 18 h): 47 and 32 and 39
RPE1 cell growth (RPE1 cells; 10 uM, 12 h): 35 and 30 and 28
RPE1 cell growth (RPE1 cells; 10 uM, 14 h): 37 and 32 and 29
RPE1 cell growth (RPE1 cells; 10 uM, 16 h): 40 and 34 and 30
RPE1 cell growth (RPE1 cells; 10 uM, 18 h): 41 and 33 and 31
U2OS cell growth (U2OS cells; 100 nM, time 12 h): 30.039 and 31.8169 and 25.957
U2OS cell growth (U2OS cells; 100 nM, time 14 h): 36.7184 and 35.7351 and 29.7044
U2OS cell growth (U2OS cells; 100 nM, time 16 h): 39.2889 and 37.9845 and 31.4528
U2OS cell growth (U2OS cells; 100 nM, time 18 h): 37.2011 and 35.9358 and 33.7024
U2OS cell growth (U2OS cells; 500 nM, time 12 h): 39.6018 and 39.3063 and 46.5513
U2OS cell growth (U2OS cells; 500 nM, time 14 h): 41.6345 and 42.6666 and 49.2704
U2OS cell growth (U2OS cells; 500 nM, time 16 h): 45.3907 and 47.9062 and 52.0609
U2OS cell growth (U2OS cells; 500 nM, time 18 h): 43.4852 and 49.3841 and 54.0055
U2OS cell growth (U2OS cells; 1 uM, time 12 h): 44.5254 and 40.9759
U2OS cell growth (U2OS cells; 1 uM, time 14 h): 46.2098 and 49.2616 and 53.9991
U2OS cell growth (U2OS cells; 1 uM, time 16 h): 49.3975 and 54.5674 and 61.7887
U2OS cell growth (U2OS cells; 1 uM, time 18 h): 51.145 and 49.7067 and 53.3117
U2OS cell growth (U2OS cells; 3 uM, time 14 h): 54.2995 and 61.1013 and 64.7775
U2OS cell growth (U2OS cells; 3 uM, time 16 h): 65.8831 and 67.2199 and 65.8756
U2OS cell growth (U2OS cells; 3 uM, time 18 h): 53.1738 and 59.7189 and 63.6078
U2OS cell growth (U2OS cells; 5 uM, time 12 h): 54.1011 and 52.9989 and 58.4408
U2OS cell growth (U2OS cells; 5 uM, time 14 h): 62.2169 and 55.4187 and 56.6119
U2OS cell growth (U2OS cells; 5 uM, time 16 h): 62.198 and 60.0966 and 65.9718
U2OS cell growth (U2OS cells; 5 uM, time 18 h): 63.919 and 64.0354 and 66.2673
U2OS cell growth (U2OS cells; 10 uM, time 12 h): 46.2464 and 34.4066 and 44.9751
U2OS cell growth (U2OS cells; 10 uM, time 14 h): 50.641 and 37.3573 and 48.3201
U2OS cell growth (U2OS cells; 10 uM, time 16 h): 53.2653 and 40.2477 and 51.4709
U2OS cell growth (U2OS cells; 10 uM, time 18 h): 55.6575 and 43.8694 and 53.8696

CSP (GABARAP; GABARAP residue A89): 0.029 ppm
CSP (GABARAP; GABARAP residue G92): 0.035 ppm
CSP (GABARAP; GABARAP residue I84): 0.034 ppm
CSP (GABARAP; GABARAP residue L94): 0.045 ppm
CSP (GABARAP; GABARAP residue M91): 0.054 ppm
CSP (GABARAP; GABARAP residue N82): 0.008 ppm
CSP (GABARAP; GABARAP residue P85, estimated): 0.025 ppm
CSP (GABARAP; GABARAP residue P86, estimated): 0.020 ppm
CSP (GABARAP; GABARAP residue Q93): 0.036 ppm
CSP (GABARAP; GABARAP residue S88): 0.030 ppm
CSP (GABARAP; GABARAP residue T87): 0.020 ppm
CSP (GABARAP; GABARAP residue T90): 0.046 ppm
CSP (GABARAP; GABARAP residue V4, estimated): 0.005 ppm
CSP (GABARAP; GABARAP residue V83): 0.010 ppm
CSP (GABARAP; GABARAP residue Y5, estimated): 0.005 ppm
CSP (GABARAP; GABARAP residue Y95): 0.030 ppm
CSP (LC3B; LC3B residue E04, estimated): 0.020 ppm
CSP (LC3B; LC3B residue F79): 0.026 ppm
CSP (LC3B; LC3B residue F80): 0.043 ppm
CSP (LC3B; LC3B residue G85): 0.340 ppm
CSP (LC3B; LC3B residue H86): 0.225 ppm
CSP (LC3B; LC3B residue I95): 0.218 ppm
CSP (LC3B; LC3B residue K05): 0.022 ppm
CSP (LC3B; LC3B residue L81): 0.196 ppm
CSP (LC3B; LC3B residue L82): 0.348 ppm
CSP (LC3B; LC3B residue M88): 0.096 ppm
CSP (LC3B; LC3B residue N84): 0.200 ppm
CSP (LC3B; LC3B residue P94, estimated): 0.260 ppm
CSP (LC3B; LC3B residue S87): 0.288 ppm
CSP (LC3B; LC3B residue S90): 0.272 ppm
CSP (LC3B; LC3B residue S92): 0.283 ppm
CSP (LC3B; LC3B residue T93): 0.304 ppm
CSP (LC3B; LC3B residue V83): 0.350 ppm
CSP (LC3B; LC3B residue V89): 0.263 ppm
CSP (LC3B; LC3B residue V91, estimated): 0.280 ppm
SMILES: CCCCCCC(Sc1nc(Cl)cc(Nc2nc(-c3ccc(C(=O)O)cc3)cs2)n1)C(=O)O (stereo not drawn) [compound 21]
